In patent US11739318B1, “Modified biosensors and biocatalysts and methods of use” (priority 2017, dated 2023):
Changes are numbered by the printed parent chain. Numbers in names are those of the source. For part of these data: At least one read-out could not be matched to a standard name with certainty. Some results were stated once for a whole list of compounds, not compound by compound.

B1: UbiC_C21: E. coli UbiC variant with mutations M34V/I78V (protein, UniProt P26602 2-165, looked up, variant M34V I78V)
Chorismate pyruvate-lyase: SHPALTQLRALRYCKEIPALDPQLLDWLLLEDSVTKRFEQQGKTVSVTMIREGFVEQNEIPEELPLLPKESRYWLREVLLCADGEPWLAGRTVVPVSTLSGPELALQKLGKTPLGRYLFTSSTLTRDFIEIGRDAGLWGRRSRLRLSGKPLLLTELFLPASPLY
B2: UbiC_C22: E. coli UbiC variant with mutations E31Q/M34V (protein, UniProt P26602 2-165, looked up, variant E31Q M34V)
Chorismate pyruvate-lyase: B1 Chorismate pyruvate-lyase with E31Q, V78I
B3: Lib1-C3.3: top PON1 variant (H115W, L69V, K70Q, Y71L, G73A) (protein, UniProt P27169 2-355, looked up, variant H115W L69V K70Q Y71L G73A)
Serum …: AKLIALTLLGMGLALFRNHQSSYQTRLNALREVQPVELPNCNLVKGIETGSEDLEILPNGLAFISSGVQLPAIKSFNPNSPGKILLMDLNEEDPTVLELGITGSKFDVSSFNPWGISTFTDEDNAMYLLVVNHPDAKSTVELFKFQEEEKSLLHLKTIRHKLLPNLNDIVAVGPEHFYGTNDHYFLDPYLQSWEMYLGLAWSYVVYYSPSEVRVVAEGFDFANGINISPDGKYVYIAELLAHKIHVYEKHANWTLTPLKSLDFNTLVDNISVDPETGDLWVGCHPNGMKIFFYDSENPPASEVLRIQNILTEEPKVTQVYAENGTVLQGSTVASVYKGKLLIGTVFHKALYCEL
B4: UbiC_C11: E. coli UbiC variant with mutations E31Q/I78V/L80V (protein, UniProt P26602 2-165, looked up, variant E31Q I78V L80V)
Chorismate pyruvate-lyase: B1 Chorismate pyruvate-lyase with E31Q, V34M, L80V

Assays:
[1] = system: P. putida CJ200; assay: Shake flask muconate production; assay type: cell-based; details: CJ200 transformed with plasmid, 50 mM glucose
Description: Shake flask experiments for muconate production: P. putida CJ200 transformed with pPobR_ubiC plasmids or with genomically integrated ubiC-C22 under PobR regulation (NP015) were grown in 125 mL baffled shake flasks containing 25 mL of 1×M9 salts (6.78 g/L Na2HPO4, 3 g/L KH2PO4, 0.5 g/L NaCl, 1 g/L NH4Cl), 30-50 mM glucose, 2 mM MgSO4, 100 μM CaCl2), 18 μM FeSO4, and 50 μg/mL kanamycin. Seed cultures were grown from glycerol stocks in LB media supplemented with 50 μg/mL kanamycin, for 16 hours, pelleted and washed with M9 growth medium and subcultured into flasks to a final OD600 of 0.05. Cultures were incubated at 30° C. and 225 rpm for up to 2 days. Samples were taken at regular intervals to quantify cell density, glucose consumption, and muconate concentration.
Quantification of glucose and muconate concentrations using High Performance Liquid Chromatography (HPLC): To measure muconate concentration, culture samples collected at various time points were centrifuged either at 3,500 rpm for 10 min or 16,000 rpm for 1 min. […] The samples were analyzed for 10 min on a Fast Acid column (Phenomenex Rezex RFQ-Fast Acid H+(8%)) using 0.01 N H2SO4 at a flow rate of 0.8 mL/min as a mobile phase. […] Alternatively, the samples were analyzed for 40 min on a SUPELCOGEL H Column (SUPELCO) with 0.1% H2SO4 at 0.5 mL/min. […]

[2] = UbiC enzyme kinetic parameters (pyruvate release coupled to lactate dehydrogenase, NADH oxidation at 340 nm); assay type: biochemical; details: for increase in Km for chorismate / increase in kcat / increase in product inhibition constant, Kp: compared to the wild type; for kcat/Km: sfGFP fused UbiC variants with C-terminal 6xHis tag
Description: Enzyme expression and purification: 5 mL cultures were grown from the glycerol stocks of P. putida CJ182 containing plasmids encoding 6×His-tag UbiC variants. At an OD600 of ˜0.6, the cultures were induced with 1 mM 4HB and further grown for 16 h at 30° C. and 225 rpm shaking. The cultures were centrifuged at 3500×g for 10 min and the cell pellets were lysed with 500 μL BugBuster (Novagen) under slow shaking for 30 min. The cell lysates were centrifuged at 15,000×g for 15 min at 4° C. and the sfGFP-UbiC fusion proteins were purified by Affinity Chromatography using Talon beads (Clontech). For purification, the clarified supernatant for each UbiC variant was mixed with 200 μL Talon beads in an equilibration buffer (50 mM Tris-HCl, 300 mM NaCl, pH 7.5) for 30 min. The mixture was centrifuged at 2000×g, the supernatant was discarded and the pellet consisting of Talon beads with bound protein was washed two times with equilibration buffer containing 50 mM imidazole. Finally, the beads were mixed with elution buffer (50 mM Tris-HCl, 300 mM NaCl, 300 mM Imidazole, pH 7.5) and filtered through a spin column with 0.2 µm filter. The enzyme concentration and purity of the protein in the eluate were determined by absorbance at 280 nm using a Nanodrop (Thermo Scientific) and SDS polyacrylamide gel electrophoresis, respectively.
Determining enzyme kinetic parameters: The production of 4HB from chorismate catalyzed by UbiC is accompanied with release of a pyruvate molecule. […] The reactions were conducted in 96-well plate at 30° C. in the Synergy H4 Hybrid Microplate Reader (Biotek). The kinetic parameters and product inhibition constants were determined by measuring the initial reaction rates with respect to varying substrate and product concentrations and calculated using GraphPad Prism software.

[3] = Paraoxonase activity of purified PON1 variants (pNP absorbance 410 nm); assay type: biochemical; details: versus PON1-H115W
Description: FIGS. 17A-17G show evolution of PON1. […] Residue positions varied in library construction are indicated. […] The circled region is magnified (inset) for easy visualization of the bright colony. […] The contrast ratio is defined as total fluorescence of the cells in the presence of PXN over the background fluorescence of the cells in the absence of PXN. […] The product, pNP, is measured by absorbance (410 nm). Error bars are standard deviation from two independent assays with different fractions from size exclusion chromatography. […] Error bars are the standard deviation of two independent assays using elution fractions from first half and second half of the chromatogram peak from size exclusion chromatography.
Finally, the gene for top PON1 variant Lib1-C3.3 (H115W, L69V, K70Q, Y71L, G73A) and the scaffold (H115W) were transferred to a pRSF-1b vector (Novagen) and expressed as a C-terminal 6×His-tagged protein. Post two-step purification using affinity column and a size exclusion chromatography, pure fractions were combined and tested for activity at varying concentrations of PXN. […]

Row | Molecule | final muconate concentration [1] [mM] | increase in Km for chorismate [2] | increase in kcat [2] | increase in product inhibition constant, Kp [2] | kcat/Km [2] | enhancement in catalytic efficiency (kcat/Km) [3]
1 | B1 | > 6 | 3-5 fold | 2-3 fold | 7-8 fold | 7.4 × 10^3 s^−1M^−1 | 
2 | B2 | > 6 | 3-5 fold | 2-3 fold | 7-8 fold | 7.0 × 10^3 s^−1M^−1 | 
3 | B3 |  |  |  |  |  | one to two-orders of magnitude
4 | B4 |  |  |  |  | 9.3 × 10^3 s^−1M^−1 | 
